Measurements from patent CN113583125A.
Where a chain is given by its changes, count along the chain named. Results are given in words; binding and its absence hold for the method and conditions named. Some results given as binding are weak or reduced against the parent protein; the word gives no strength.

By UniProt entry, the sequences of proteins in these tests, tags left out. Where a name states a change or a piece, a line headed by the entry shows the natural chain unless it says otherwise.
UniProt P01215: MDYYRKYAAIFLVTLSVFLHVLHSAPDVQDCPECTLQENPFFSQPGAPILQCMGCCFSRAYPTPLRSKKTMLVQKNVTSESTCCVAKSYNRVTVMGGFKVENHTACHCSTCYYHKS

B1: SEQ ID NO:13蛋白 (VHH-sgs-HHHHHH) (VHH)
VHH: QVQVAESGGGLVQSGGSMNLSCTASGNLVSVDAMGWFRQAPGEEREAVAAIMWSGDSTYYANAVKGRFTISRDNAKNTVYLQMNSLKPEDTAVYYCAARLQEEGWWDYWGQGTQVTVSS
B2: SEQ ID NO:14蛋白 (VHH-sgs-HHHHHH) (VHH)
VHH: B1 VHH with N27R, L28T, V29F, V31S, D32H
B3: SEQ ID NO:15蛋白 (VHH-sgs-HHHHHH) (VHH)
VHH: QVQVVESGGGLVQAGDSLRLSCAARTGSFSSYAMGWFRQAPGKEREAVAAITWSGGSTYYADSVKGRFTISRDNTKNTVYLQMNSLKPEDTAVYYCAARDRADWYSWWDYWGQGTQVTVSS

Molecular target: SEQ ID NO:1蛋白 (FSH、hCG、TSH、FSH-CTP和hLH共同α链) (Homo sapiens (Human)) (UniProt P01215)
Experiment: Phage ELISA screen, VHH displayed on phage

binding, binds:
B1
B2
B3
